The values below come from publication doi:10.1101/869123.

Chains of the proteins cited; added tags and fusions are not shown. Lines headed by an entry give the natural chain unless they say otherwise; changes in a name come on top.
UniProt Q9P021: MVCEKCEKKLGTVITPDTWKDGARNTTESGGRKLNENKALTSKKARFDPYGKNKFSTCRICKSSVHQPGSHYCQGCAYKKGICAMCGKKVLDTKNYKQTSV
UniProt P23258: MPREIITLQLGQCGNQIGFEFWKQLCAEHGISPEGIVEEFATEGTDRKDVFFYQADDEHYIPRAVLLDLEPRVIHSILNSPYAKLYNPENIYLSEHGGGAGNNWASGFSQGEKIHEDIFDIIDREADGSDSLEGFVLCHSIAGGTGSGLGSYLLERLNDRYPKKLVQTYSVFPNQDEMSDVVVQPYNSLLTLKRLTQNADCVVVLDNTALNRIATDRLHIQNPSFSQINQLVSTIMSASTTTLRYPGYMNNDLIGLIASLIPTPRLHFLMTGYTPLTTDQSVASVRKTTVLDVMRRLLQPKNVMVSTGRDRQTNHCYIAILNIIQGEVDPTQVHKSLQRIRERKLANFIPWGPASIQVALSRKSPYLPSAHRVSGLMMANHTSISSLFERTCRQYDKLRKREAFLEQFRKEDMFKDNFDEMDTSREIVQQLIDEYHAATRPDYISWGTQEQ

The test concerns the target DsRed-CRIPT^WT, co-expressed with GFP-tagged tubulin in interphase HeLa cells (human) (UniProt Q9P021). As to the kind of experiment: co-IP.

No constants are given. Whether binding was seen depends on the method and setting. In cells and extracts the contact can be indirect. Binding can be weak; no strength is given.

In the case of “GFP-tagged γ-tubulin (from UniProt P23258)”, the binding entry was “binds”.
